Measurements from article PMC9378673 (Nature Communications, 2022).

System: IDH1 dimer
Test: Non-denaturing MS binding stoichiometry
Parameters: species or system human
Conditions: 20 µM IDH1 variant

Structure (SMILES) | Stoichiometry of inhibitor binding per IDH1 dimer (non-denaturing MS)
COc1c(C)cc(NC(=O)c2nn(Cc3ccc(F)cc3)c3c2CN(C(=O)c2ccc[nH]2)C[C@]3(C)C(N)=O)cc1C [GSK864] | 2
C[C@H](Nc1ccc(C#N)n(C)c1=O)c1cc2cc(Cl)ccc2[nH]c1=O [FT-2102] | 2
Cc1cn(C(=O)c2c(-c3c(Cl)cc(Cl)cc3Cl)noc2C(C)(C)F)c2cccc(/C=C/C(=O)O)c12 [DS-1001B] | 2
N#Cc1ccnc(N2C(=O)CC[C@H]2C(=O)N(c2cncc(F)c2)[C@H](C(=O)NC2CC(F)(F)C2)c2ccccc2Cl)c1 [ivosidenib] | one inhibitor molecule per dimer
CC(Nc1nccc(N2C(=O)OCC2C(C)C)n1)c1ccc(CN2CCC(F)(F)CC2)cc1 (centres unmarked) [IDH224] | 2
